Laboratory results taken from publication PMC6506827.
These are yes or no findings as the source states them, for the method shown.

Target: PghL hydrolase from Bacillus subtilis (B. subtilis) (UniProt O31815)
Assay: SEC; analytical size exclusion chromatography, room temperature, protein at 0.05 mg/mL; both purified

binding: no binding (tested: 0.05 mg·mL^−1)
B1: PghL hydrolase from Bacillus subtilis (enzyme, UniProt O31815 47-252)
chain: SSIYAEDVYQNFEELKNNEDPSDYGVVTKETGSPVLVLAIHGGGIEGGTSEVARELSKEYSMYLFEGLKSAGNSVLHITSTHFDEPRALKMTGNHEYVISLHGYAEEDQQIEVGGTDRVRAADLVEKLQHAGFPAVLLNMDHPHAGVSPNNIANKSKTGLSIQIEMSTGFRKSLFGIFSLKSRAVTQNERFYEFTEVMFRFLKNSY
